# Library screening results

Mtb growth Cornell: 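Whole-cell assay for inhibitors of Mycobacterium tuberculosis growth, labelled Cornell in the record; the read-out is not stated. The concentration is filed as 10 mM, unlikely as a test dose, so the dose is not known. Higher means stronger inhibition (inferred from two other growth screens of the library). Size under these conditions: about 53,000 compounds, about 900 of them at 50% or above in at least one test.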
Mtb heat-shock: 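Assay on Mycobacterium tuberculosis, filed only as a heat shock assay from Cornell; the read-out is not stated. The concentration is filed as 10 mM, unlikely as a test dose, so the dose is not known. Higher reads as stronger inhibition (inferred: compounds with an IC50 in retests scored well above the rest). Of about 69,000 compounds tested this way, about 930 (1.4%) reached 50% or more in at least one test.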

Values are the deposited “Percent Effect”, in %.
The record does not define 0% and 100%; most values in the screen are far below 50% and negative numbers occur (in some assays of this library far below -100).
Compounds were drawn at random from those tested, without regard to their results.
A dash means the value is not listed here; it may have been measured.

compound	Mtb growth Cornell	Mtb heat-shock
Cn1cc(Cl)c(C(=O)N2CCC(N3CCc4ccccc4C3)CC2)n1	-2.49	13.42
CCc1ncc2c(n1)CN(CC(O)COc1ccc(C#N)cc1)CC2 (configuration not stated)	36.36	2.838
CC(C)c1nnc(NCc2ccsc2)o1	-18.84	17.12
Cc1cccc(NS(=O)(=O)c2cnn(C)c2)c1C#N	-1.344	20.31
CCN(CC)C(=O)CSc1nc2nc(C)ccc2o1	1.122	-13.12
CN1CC(c2ccccc2)C2(CCN(C(=O)c3ccc[nH]3)CC2)C1=O (configuration not stated)	6.523	-42.61
Cc1ccc(C)c(-n2ncc(C(=O)NCC3COC(C)(C)O3)c2N)c1 (configuration not stated)	-21.49	39.56
O=C(c1cncnc1)N1Cc2ccccc2OC2(CCOCC2)C1	-16.98	-2.243
COc1cc(C)ccc1S(=O)(=O)N[C@H]1CN(C(C)=O)C[C@@H]1C1CC1	-22.73	-5.067
Cc1noc(CN(Cc2ccc3c(c2)OCO3)Cc2ccc(C)o2)n1	35.71	14.23
O=C(O)C(F)(F)F.[H][C@@]12CN(C(=O)c3ccccc3)CCO[C@]1([H])CN(c1ccc(C)nn1)C2	-36.34	-12.54
Cc1nnc2n1CCN(CCOc1ccccc1C#N)C2	-50.99	-27.91
COc1cc(C)ccc1S(=O)(=O)N1CC[C@](C)(O)[C@H](C)C1	5.684	4.479
Cc1noc([C@@H](C)NCc2cccc(Cl)c2)c1C(=O)O.Cl	1.777	-29.33
O=C(Nc1ccncc1)N(CCO)Cc1ccsc1	-	-4.823
CCCNC(=O)c1cc2c(nc1O)CCC(C)C2 (configuration not stated)	-	-3.278
CN(C)C(=O)c1ccc2c(c1)N(C)C(CC(=O)NCc1ccno1)CO2 (configuration not stated)	-15.93	79.27
CN1CCN(C(=O)NCCNc2ncccn2)Cc2ccccc21	14.16	8.741
O=c1[nH]nc2c(S(=O)(=O)N3CCOCC3)cccn12	-5.2	5.816
CCc1ccccc1CN1CCC(N2CCCC2=O)CC1	20.09	-6.75
Cc1nc(C(=O)NCc2ccc(N3CCNC(=O)C3)c(F)c2)cs1	12.07	7.11
[H][C@]12C[C@@H](C(=O)N(C)Cc3ccccn3)CO[C@@]1([H])CCN(CCOC)C2	-6.684	10.27
CCOc1cncc(N2CCN(c3ccccc3O)CC2)n1	-	-2.339
CC(Nc1cccc(CN2CCOC2=O)c1)C(=O)Nc1ccccc1 (configuration not stated)	-	15.09
O=C1CC2(CCCC2)CC(=O)N1CCn1cnnc1	-32.55	15.09
Cc1nn(C)cc1CN1CCC(c2ncc(Cl)cc2S(C)(=O)=O)CC1	-5.016	6.289
Cc1cc(-c2nn(C)c(Cl)c2CN2CC[C@@](O)(C3CCC3)[C@H](C)C2)no1	-	-5.652
[H][C@]1([C@H](O)c2ccc(NC(=O)COC)cc2)COCC(=O)N1CC	-27.27	-47.38
Cc1cccc(C(=O)N2C[C@@H](C)[C@@]3(CCN(c4ccsc4)C3=O)C2)n1.O=C(O)C(F)(F)F	-29.16	5.09
CCc1nc(C2CCCN2Cc2nnc(Cc3ccccc3)o2)no1 (configuration not stated)	-	-4.548
CC(C)c1nc(-c2cc(C(=O)NCCCO)c3ccccn23)cs1	21.42	42.09
N[C@H]1CCCN(C(=O)c2cnc(COc3ccccc3)nc2O)C1	9.276	-12.01
[H][C@@]12COC[C@]1(CNS(C)(=O)=O)CN(C(=O)N(C)C)C2	-28.38	4.319
CN1CC(=O)N(c2cccnc2)CC12CCN(C(=O)c1cccnc1)C2.O=C(O)C(F)(F)F.O=C(O)C(F)(F)F (configuration not stated)	3.253	-4.775
NCCn1cc(C(=O)NCc2ccccc2Cn2cccn2)nn1	-28.25	11.78
CC(=O)c1cccc(NC(=O)CN2CCCCC2C2OCCO2)c1 (configuration not stated)	-15.69	14.2
O=C(c1ccoc1)N1CCCN(CC2CCOc3ccccc3C2)CC1 (configuration not stated)	7.328	1.524
[H][C@@]12C[C@@H](c3nc(C)cs3)O[C@]1([H])CN(C(=O)c1cc(C)nn1CC)C2	11.32	17.33
CC(C)NC(=O)Nc1ccc(CS(=O)(=O)C(C)(C)C)cc1	1.181	1.682
CCOC(=O)CC(c1ccc(OC)c(OC)c1)c1c(O)n[nH]c1C (configuration not stated)	17.75	-1.827
O=S1(=O)CCC(n2cc(CNc3ccccc3Br)cn2)C1 (configuration not stated)	-21.84	-14.46
c1ccc(Cc2nc(C3CC3)nn2-c2ccc3c(c2)OCCO3)nc1	0.5199	-31.86
[H][C@@]12C[C@@H](C(=O)Nc3cnccn3)CN(c3ncc(F)cn3)[C@]1([H])CCO2	-30.16	-27.12
O=C(NCCN1CCOC1=O)c1cnc(-c2cccnc2)nc1	-9.007	18.71
COCCCN(Cc1ccccn1)S(=O)(=O)N(C)C	-20.86	12.65
O=C(O)C(F)(F)F.O=C(c1cccc(Cl)c1)N1CCCn2c(CN3CCCCC3)nnc2C1	-	2.382
Cc1nn(C)c(C)c1C1CCCN1Cc1nc(-c2ccco2)oc1C (configuration not stated)	16.35	37.03
CS(=O)(=O)Cc1ccc(C(=O)NC2CCc3nccn3C2)o1 (configuration not stated)	-	3.303
CNS(=O)(=O)c1ccc(CNC(=O)C2CCCN(C)C2)cc1 (configuration not stated)	-	-22.3
CCn1ncnc1C1CC(=O)NCc2nc3ccccn3c21 (configuration not stated)	26.26	6.113
Cc1ccc(O)c(CNC2CCCN(Cc3noc(C4CC4)n3)C2)n1 (configuration not stated)	-	-14.3
CCCc1nc(Nc2cccc(C(N)=O)c2)c2c(n1)c(C)nn2CC	-	-11.55
COc1ccccc1N1CCN(C(=O)CSCC2CC2)C(C)C1 (configuration not stated)	-14.94	-18.29
CN(C)S(=O)(=O)c1ccc(F)c(NC(=O)COCC2CC2)c1	-12.24	5.743
[H][C@@]12CCN(C[C@@H]1CN(C)c1ccccc1)[C@@H](CNC(=O)NC(C)C)C2	15.33	-13.25
CCn1ccc(C(=O)N2CCCN(Cc3ccccc3F)CC2)cc1=O	-8.151	-19.69
CSc1ccc(C2CC(=O)Nc3c2c(=O)[nH]c2ncnn32)cc1 (configuration not stated)	-33.82	9.953
O=C(c1nn[nH]c1Nc1cccc(Cl)c1)N1CCSCC1	-	-2.539

From ChEMBL document CHEMBL3988442, “University of Dundee, Small-Polar-MMV Screening Library” (2021).